Some of these results come from one statement about several compounds together. For at least one compound, name, drawing or mass did not settle the structure.
system: Venturia inaequalis; assay: Venturia test (apple)/protective; type: in vivo; conditions: active compound concentration 100 ppm, protective, evaluation 10 days after inoculation

SMILES	efficacy [%]
CC(=NOCC(C)CON=C(C)c1cccc(C)n1)c1cccc(C)n1.[Cl][Fe][Cl] (centres unmarked) [Compound 298]	≥ 70
CC(=NOCC1(CON=C(C)c2cc(C)cc(C)n2)CCCC1)c1cc(C)cc(C)n1 [Compound 589]	≥ 70
C=C(CON=C(C)c1cccc(C)n1)CON=C(C)c1nc(C)cc(C)n1 [Compound 188]	≥ 70
C=C(CON=C(C)c1cccc(C)n1)CON=C(C)c1cccc(C)n1 [Compound 9]	≥ 70
CC(=NOCCC(C)ON=C(C)c1cccc(C)n1)c1cccc(C)n1 (centres unmarked) [Compound 295]	≥ 70
CC(=NOC(C)CC(C)ON=C(C)c1ccc(C)c(C)n1)c1ccc(C)c(C)n1 (centres unmarked) [Compound 322]	≥ 70
CC(=NOC(C)CC(C)ON=C(C)c1cccc(C)n1)c1cccc(C)n1 (centres unmarked) [Compound 248]	≥ 70
COc1cc(C)nc(C(C)=NOCC(C)CON=C(C)c2cccc(C)n2)c1 (centres unmarked) [Compound 501]	≥ 70

system: Botrytis cinerea; assay: Botrytis test (bean)/protective; type: in vivo; conditions: active compound concentration 250 ppm, protective, evaluation 2 days after inoculation

SMILES	efficacy [%]
CC(=NOCCCON=C(C)c1ccc(C)c(C)n1)c1cccc(C)n1 [Compound 699]	≥ 70
CC(=NOCC(C)(C)CON=C(C)c1ccc2c(n1)CCC2)c1ccc2c(n1)CCC2 [Compound 301]	≥ 70
CC[Si](CC)(CON=C(C)c1cc(C)cc(C)n1)CON=C(C)c1cc(C)cc(C)n1 [Compound 787]	≥ 70
CC(=NOCC(C)CON=C(C)c1cccc(C)n1)c1cccc(C)n1.[Cl][Fe][Cl] (centres unmarked) [Compound 298]	≥ 70
CC(=NOCC1(CON=C(C)c2cc(C)cc(C)n2)CCCC1)c1cc(C)cc(C)n1 [Compound 589]	≥ 70
C=C(CON=C(C)c1cccc(C)n1)CON=C(C)c1cccc(C)n1 [Compound 9]	≥ 70
CC(=NOCCC(C)ON=C(C)c1cccc(C)n1)c1cccc(C)n1 (centres unmarked) [Compound 295]	≥ 70
CC(=NOC(C)CC(C)ON=C(C)c1ccc(C)c(C)n1)c1ccc(C)c(C)n1 (centres unmarked) [Compound 322]	≥ 70
COc1cc(C)nc(C(C)=NOCC(C)CON=C(C)c2cccc(C)n2)c1 (centres unmarked) [Compound 501]	≥ 70

system: Puccinia recondita; assay: Puccinia test (wheat)/protective; type: in vivo; conditions: active compound concentration 500 ppm, protective, evaluation 8-10 days after inoculation

SMILES	efficacy [%]
CC(=NOCCCON=C(C)c1ccc(C)c(C)n1)c1cccc(C)n1 [Compound 699]	≥ 70
CC(=NOC(C)C(C)C(C)ON=C(C)c1cc(C)cc(C)n1)c1cc(C)cc(C)n1 (mixture of isomers) [Compound 790]	≥ 70
CC[Si](CC)(CON=C(C)c1cc(C)cc(C)n1)CON=C(C)c1cc(C)cc(C)n1 [Compound 787]	≥ 70
CC(=NOCC(C)CON=C(C)c1cccc(C)n1)c1cccc(C)n1.[Cl][Fe][Cl] (centres unmarked) [Compound 298]	≥ 70
CC(=NOCC1(CON=C(C)c2cc(C)cc(C)n2)CCCC1)c1cc(C)cc(C)n1 [Compound 589]	≥ 70
C=C(CON=C(C)c1cccc(C)n1)CON=C(C)c1cccc(C)n1 [Compound 9]	≥ 70
CC(=NOC(C)CC(C)ON=C(C)c1cccc(C)n1)c1cccc(C)n1 (centres unmarked) [Compound 248]	≥ 70

system: Alternaria solani; assay: Alternaria test (tomato)/protective; type: in vivo; conditions: active compound concentration 500 ppm, protective, evaluation 7 days after inoculation

SMILES	efficacy [%]
CC(=NOCCCON=C(C)c1ccc(C)c(C)n1)c1cccc(C)n1 [Compound 699]	≥ 70
CC(=NOCC(C)(C)CON=C(C)c1ccc(C)c(C)n1)c1ccc(C)c(C)n1 [Compound 278]	≥ 70
CC(=NOCC(C)CON=C(C)c1ccc2c(n1)CCC2)c1ccc2c(n1)CCC2 (centres unmarked) [Compound 300]	≥ 70
CC(=NOCC(C)(C)CON=C(C)c1ccc2c(n1)CCC2)c1ccc2c(n1)CCC2 [Compound 301]	≥ 70
CC(=NOC(C)C(C)C(C)ON=C(C)c1cc(C)cc(C)n1)c1cc(C)cc(C)n1 (mixture of isomers) [Compound 790]	≥ 70
CC[Si](CC)(CON=C(C)c1cc(C)cc(C)n1)CON=C(C)c1cc(C)cc(C)n1 [Compound 787]	≥ 70
CC(=NOCC(C)CON=C(C)c1cccc(C)n1)c1cccc(C)n1.[Cl][Fe][Cl] (centres unmarked) [Compound 298]	≥ 70
CC(=NOCC1(CON=C(C)c2cc(C)cc(C)n2)CCCC1)c1cc(C)cc(C)n1 [Compound 589]	≥ 70
C=C(CON=C(C)c1cccc(C)n1)CON=C(C)c1nc(C)cc(C)n1 [Compound 188]	≥ 70
C=C(CON=C(C)c1cccc(C)n1)CON=C(C)c1cccc(C)n1 [Compound 9]	≥ 70
CC(=NOCCC(C)ON=C(C)c1cccc(C)n1)c1cccc(C)n1 (centres unmarked) [Compound 295]	≥ 70
CC(=NOC(C)CC(C)ON=C(C)c1ccc(C)c(C)n1)c1ccc(C)c(C)n1 (centres unmarked) [Compound 322]	≥ 70
CC(=NOC(C)CC(C)ON=C(C)c1cccc(C)n1)c1cccc(C)n1 (centres unmarked) [Compound 248]	≥ 70
COc1cc(C)nc(C(C)=NOCC(C)CON=C(C)c2cccc(C)n2)c1 (centres unmarked) [Compound 501]	≥ 70

system: Sphaerotheca fuliginea; assay: Sphaerotheca test (cucumber)/protective; type: in vivo; conditions: active compound concentration 500 ppm, protective, evaluation 7 days after inoculation

SMILES	efficacy [%]
CC(=NOCC(C)(C)CON=C(C)c1ccc(C)c(C)n1)c1ccc(C)c(C)n1 [Compound 278]	≥ 70
CC(=NOCC(C)(C)CON=C(C)c1ccc2c(n1)CCC2)c1ccc2c(n1)CCC2 [Compound 301]	≥ 70
CC(=NOC(C)C(C)C(C)ON=C(C)c1cc(C)cc(C)n1)c1cc(C)cc(C)n1 (mixture of isomers) [Compound 790]	≥ 70
CC(=NOCC1(CON=C(C)c2cc(C)cc(C)n2)CCCC1)c1cc(C)cc(C)n1 [Compound 589]	≥ 70
CC(=NOC(C)CC(C)ON=C(C)c1ccc(C)c(C)n1)c1ccc(C)c(C)n1 (centres unmarked) [Compound 322]	≥ 70
CC(=NOC(C)CC(C)ON=C(C)c1cccc(C)n1)c1cccc(C)n1 (centres unmarked) [Compound 248]	≥ 70

system: Pyrenophora teres; assay: Pyrenophora teres test (barley)/protective; type: in vivo; conditions: active compound concentration 1000 ppm, protective, evaluation 8 days after inoculation

SMILES	efficacy [%]
CC(=NOCCCON=C(C)c1ccc(C)c(C)n1)c1cccc(C)n1 [Compound 699]	≥ 70
CC(=NOCC(C)(C)CON=C(C)c1ccc(C)c(C)n1)c1ccc(C)c(C)n1 [Compound 278]	≥ 70
CC(=NOCC(C)CON=C(C)c1ccc2c(n1)CCC2)c1ccc2c(n1)CCC2 (centres unmarked) [Compound 300]	≥ 70
CC(=NOCC(C)(C)CON=C(C)c1ccc2c(n1)CCC2)c1ccc2c(n1)CCC2 [Compound 301]	≥ 70
CC(=NOC(C)C(C)C(C)ON=C(C)c1cc(C)cc(C)n1)c1cc(C)cc(C)n1 (mixture of isomers) [Compound 790]	≥ 70
CC[Si](CC)(CON=C(C)c1cc(C)cc(C)n1)CON=C(C)c1cc(C)cc(C)n1 [Compound 787]	≥ 70
CC(=NOCC(C)CON=C(C)c1cccc(C)n1)c1cccc(C)n1.[Cl][Fe][Cl] (centres unmarked) [Compound 298]	≥ 70
C=C(CON=C(C)c1cccc(C)n1)CON=C(C)c1nc(C)cc(C)n1 [Compound 188]	≥ 70
C=C(CON=C(C)c1cccc(C)n1)CON=C(C)c1cccc(C)n1 [Compound 9]	≥ 70
CC(=NOCCC(C)ON=C(C)c1cccc(C)n1)c1cccc(C)n1 (centres unmarked) [Compound 295]	≥ 70
CC(=NOC(C)CC(C)ON=C(C)c1ccc(C)c(C)n1)c1ccc(C)c(C)n1 (centres unmarked) [Compound 322]	≥ 70
CC(=NOC(C)CC(C)ON=C(C)c1cccc(C)n1)c1cccc(C)n1 (centres unmarked) [Compound 248]	≥ 70
COc1cc(C)nc(C(C)=NOCC(C)CON=C(C)c2cccc(C)n2)c1 (centres unmarked) [Compound 501]	≥ 70

system: Leptosphaeria nodorum; assay: Leptosphaeria nodorum test (wheat)/protective; type: in vivo; conditions: active compound concentration 1000 ppm, protective, evaluation 10 days after inoculation

SMILES	efficacy [%]
CC(=NOCCCON=C(C)c1ccc(C)c(C)n1)c1cccc(C)n1 [Compound 699]	≥ 70
CC(=NOCC(C)(C)CON=C(C)c1ccc(C)c(C)n1)c1ccc(C)c(C)n1 [Compound 278]	≥ 70
CC(=NOCC(C)CON=C(C)c1ccc2c(n1)CCC2)c1ccc2c(n1)CCC2 (centres unmarked) [Compound 300]	≥ 70
CC(=NOCC(C)(C)CON=C(C)c1ccc2c(n1)CCC2)c1ccc2c(n1)CCC2 [Compound 301]	≥ 70
CC(=NOC(C)C(C)C(C)ON=C(C)c1cc(C)cc(C)n1)c1cc(C)cc(C)n1 (mixture of isomers) [Compound 790]	≥ 70
CC[Si](CC)(CON=C(C)c1cc(C)cc(C)n1)CON=C(C)c1cc(C)cc(C)n1 [Compound 787]	≥ 70
CC(=NOCC(C)CON=C(C)c1cccc(C)n1)c1cccc(C)n1.[Cl][Fe][Cl] (centres unmarked) [Compound 298]	≥ 70
CC(=NOCC1(CON=C(C)c2cc(C)cc(C)n2)CCCC1)c1cc(C)cc(C)n1 [Compound 589]	≥ 70
C=C(CON=C(C)c1cccc(C)n1)CON=C(C)c1nc(C)cc(C)n1 [Compound 188]	≥ 70
C=C(CON=C(C)c1cccc(C)n1)CON=C(C)c1cccc(C)n1 [Compound 9]	≥ 70
CC(=NOCCC(C)ON=C(C)c1cccc(C)n1)c1cccc(C)n1 (centres unmarked) [Compound 295]	≥ 70
CC(=NOC(C)CC(C)ON=C(C)c1ccc(C)c(C)n1)c1ccc(C)c(C)n1 (centres unmarked) [Compound 322]	≥ 70
CC(=NOC(C)CC(C)ON=C(C)c1cccc(C)n1)c1cccc(C)n1 (centres unmarked) [Compound 248]	≥ 70
COc1cc(C)nc(C(C)=NOCC(C)CON=C(C)c2cccc(C)n2)c1 (centres unmarked) [Compound 501]	≥ 70

Source: patent US20100022559A1, “BISOXIMES AS FUNGICIDES” (BAYER CROPSCIENCE AG, priority 2006, published 2010)
